Results deposited as PubChem BioAssay AID1159578 (Peter MacCallum Cancer Centre, 2015).
Shown is an unselected part of about 18,000 reagents tested. In the full data, about 1,030 (5.7%) got an active call. 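Inactive calls also include pools with fewer than 3300 nuclei, whose migration was not assessed.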 The raw values are shown without normalisation. Further read-outs or replicates are left out here. No sequences are given here.

Assay: 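Genome-wide hunt for genes controlling movement of lymphatic endothelial cells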 (primary screen)
Cell system: human lymphatic endothelial cells
Reagents: siRNA pool against human genes, 40 nM
Timing: 48 h after transfection
Measured: 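High-content imaging of dye-stained cells in a scratch assay measures filled wound area and nuclei per well; duplicate means given as ratio to mock and robust z-score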
Reading the numbers: migration robust z-score: higher = faster migration into the scratch; nuclei per well: higher = more cells in the well
Call rule: 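Pools averaging fewer than 3300 nuclei are never called; remaining pools count as changed when migration robust z lies outside -2 to 2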
Calls: active = migration changed; inactive = no migration change, or too few cells

gene knocked down | migration robust z-score | nuclei per well, duplicate mean | call
TMTC4 | 0.02 | 4684 | inactive
CSRNP3 | -0.27 | 6118 | inactive
ADAT2 | 2 | 942 | inactive
FBXW10 | -0.8 | 5417 | inactive
P4HA1 | -0.65 | 5682 | inactive
PTGER3 | 0.16 | 6188 | inactive
DERL3 | -0.2 | 5710 | inactive
NPAT | 1.28 | 5982 | inactive
GZMA | 0.1 | 5885 | inactive
ODAD3 | -0.36 | 5898 | inactive
CLOCK | 1.3 | 6145 | inactive
CREBBP | -0.21 | 6937 | inactive
DET1 | 0.84 | 6052 | inactive
MPRIP | -0.03 | 6048 | inactive
DAAM2 | -0.11 | 5409 | inactive
WDR82 | 1.63 | 7751 | inactive
ANKRD36B | 0.14 | 5580 | inactive
PSTPIP1 | -1.07 | 4870 | inactive
STAG3 | -0.94 | 5848 | inactive
CYP27B1 | 0.08 | 5764 | inactive
ASAP1 | -0.2 | 5866 | inactive
DTX1 | 1.42 | 5024 | inactive
IFT52 | -1.26 | 5202 | inactive
ASAP3 | 0.64 | 5488 | inactive
CCL4L2 | 0.05 | 5333 | inactive
ZSCAN5A | 0.22 | 5346 | inactive
SCAMP4 | -0.64 | 5430 | inactive
PCYOX1 | 0.52 | 6116 | inactive
VN1R4 | -0.42 | 6812 | inactive
LBX2 | -0.64 | 5842 | inactive
GOLGB1 | 0.22 | 5594 | inactive
N4BP2L2 | -0.22 | 5758 | inactive
POU3F2 | -0.83 | 6264 | inactive
DSE | 0.69 | 7433 | inactive
NADK | -1.4 | 3882 | inactive
DYNLRB1 | -0.32 | 4305 | inactive
GPR160 | -0.52 | 5958 | inactive
PWWP3A | -1.49 | 6560 | inactive
LAG3 | 0.68 | 5562 | inactive
FST | 0.32 | 5744 | inactive
PPAN-P2RY11 | 0.02 | 5700 | inactive
OR5B2 | -0.52 | 5186 | inactive
ZNF785 | -2.27 | 6212 | active
ZNF397 | -1.04 | 6735 | inactive
CDH13 | 0.4 | 6846 | inactive
UBASH3B | 0.54 | 4901 | inactive
GLOD4 | -0.24 | 7248 | inactive
KCNK15 | 0.1 | 6106 | inactive
SRA1 | -1.65 | 4140 | inactive
CLRN1 | 1.86 | 5574 | inactive
MPIG6B | -0.56 | 5676 | inactive
HADHB | -1.04 | 3824 | inactive
EEF1G | -0.34 | 6031 | inactive
PPT1 | 0.57 | 6814 | inactive
ADM2 | 0.19 | 5144 | inactive
SCML2 | -0.08 | 5424 | inactive
ZDHHC2 | -0.35 | 5830 | inactive

Hits, of those listed so far:
gene knocked down | migration robust z-score | nuclei per well, duplicate mean | call
ZNF785 | -2.27 | 6212 | active
